Source: the supplement of paper PMC8728848
The other results are listed elsewhere or left out.

Assays:
Test in all cases: glycan array binding signal (z-score within array); higher = stronger binding
Conditions in all cases: glycan notation: IUPAC condensed, linker removed
[1] = target: Gal(b1-3)GalNAc(a1-3)[Fuc(a1-2)]Gal(b1-4)GlcNAc
Method in brief: (§1)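 From the Consortium for Functional Glycomics database, 3228 arrays were curated, keeping only those whose protein sequence was available. Binding is given as a within-array Z-score averaged across arrays sharing a protein sequence and across linkers. Negative Z-scores can be read as non-binding.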

[2] = target: Gal(b1-3)GalNAc(b1-3)Gal(a1-4)Gal(b1-4)Glc
Method in brief: as §1

[3] = target: Gal(b1-3)GalNAc(b1-4)Gal(b1-4)Glc
Method in brief: as §1

[4] = target: Gal(b1-3)GalNAc(b1-4)[Neu5Ac(a2-3)]Gal(b1-4)Glc
Method in brief: as §1

Gal(b1-3)GlcNAc = target: Gal(b1-3)GlcNAc
Method in brief: as §1

[5] = target: Gal(b1-3)GlcNAc(a1-6)Gal(b1-4)GlcNAc
Method in brief: as §1

[6] = target: Gal(b1-3)GlcNAc(b1-2)Man(a1-3)[Gal(b1-3)GlcNAc(b1-2)Man(a1-6)]Man(b1-4)GlcNAc(b1-4)GlcNAc
Method in brief: as §1

[7] = target: Gal(b1-3)GlcNAc(b1-2)Man(a1-3)[Gal(b1-3)GlcNAc(b1-2)Man(a1-6)]Man(b1-4)GlcNAc(b1-4)[Fuc(a1-6)]GlcNAc
Method in brief: as §1

[8] = target: Gal(b1-3)GlcNAc(b1-3)Gal(b1-3)GlcNAc
Method in brief: as §1

[9] = target: Gal(b1-3)GlcNAc(b1-3)Gal(b1-4)Glc
Method in brief: as §1

[10] = target: Gal(b1-3)GlcNAc(b1-3)Gal(b1-4)GlcNAc
Method in brief: as §1

[11] = target: Gal(b1-3)GlcNAc(b1-3)Gal(b1-4)GlcNAc(b1-6)[Gal(b1-3)GlcNAc(b1-3)]Gal(b1-4)Glc
Method in brief: as §1

[12] = target: Gal(b1-3)GlcNAc(b1-3)Gal(b1-4)[Fuc(a1-3)]GlcNAc(b1-6)[Gal(b1-3)GlcNAc(b1-3)]Gal(b1-4)Glc
Method in brief: as §1

[13] = target: Gal(b1-3)GlcNAc(b1-3)GalNAc
Method in brief: as §1

[14] = target: Gal(b1-3)GlcNAc(b1-6)Gal(b1-4)GlcNAc
Method in brief: as §1

[15] = target: Gal(b1-3)[Fuc(a1-4)]GlcNAc
Method in brief: as §1

[16] = target: Gal(b1-3)[Fuc(a1-4)]GlcNAc(b1-2)Man(a1-3)[Gal(b1-3)[Fuc(a1-4)]GlcNAc(b1-2)Man(a1-6)]Man(b1-4)GlcNAc(b1-4)GlcNAc
Method in brief: as §1

[17] = target: Gal(b1-3)[Fuc(a1-4)]GlcNAc(b1-2)Man(a1-3)[Gal(b1-3)[Fuc(a1-4)]GlcNAc(b1-2)Man(a1-6)]Man(b1-4)GlcNAc(b1-4)[Fuc(a1-6)]GlcNAc
Method in brief: as §1

[18] = target: Gal(b1-3)[Fuc(a1-4)]GlcNAc(b1-3)Gal(b1-3)[Fuc(a1-4)]GlcNAc
Method in brief: as §1

[19] = target: Gal(b1-3)[Fuc(a1-4)]GlcNAc(b1-3)Gal(b1-4)GlcNAc
Method in brief: as §1

[20] = target: Gal(b1-3)[Fuc(a1-4)]GlcNAc(b1-3)Gal(b1-4)[Fuc(a1-3)]GlcNAc
Method in brief: as §1

[21] = target: Gal(b1-3)[GlcNAc(b1-6)]GalNAc
Method in brief: as §1

[22] = target: Gal(b1-3)[Neu5Ac(a2-6)]GalNAc
Method in brief: as §1

[23] = target: Gal(b1-3)[Neu5Ac(a2-6)]GlcNAc(b1-6)Gal(b1-4)Glc
Method in brief: as §1

[24] = target: Gal(b1-3)[Neu5Ac(b2-6)]GalNAc
Method in brief: as §1

[25] = target: Gal(b1-4)GalNAc(a1-3)[Fuc(a1-2)]Gal(b1-4)GlcNAc
Method in brief: as §1

[26] = target: Gal(b1-4)GalNAc(b1-3)[Fuc(a1-2)]Gal(b1-4)GlcNAc
Method in brief: as §1

Gal(b1-4)Glc = target: Gal(b1-4)Glc
Method in brief: as §1

Gal(b1-4)Glc6S = target: Gal(b1-4)Glc6S
Method in brief: as §1

Gal(b1-4)GlcNAc = target: Gal(b1-4)GlcNAc
Method in brief: as §1

[27] = target: Gal(b1-4)GlcNAc(a1-6)Gal(b1-4)GlcNAc
Method in brief: as §1

[28] = target: Gal(b1-4)GlcNAc(b1-2)Man(a1-3)Man(b1-4)GlcNAc(b1-4)GlcNAc
Method in brief: as §1

[29] = target: Gal(b1-4)GlcNAc(b1-2)Man(a1-3)[Gal(b1-4)GlcNAc(b1-2)Man(a1-6)]Man(b1-4)GlcNAc(b1-4)GlcNAc
Method in brief: as §1

[30] = target: Gal(b1-4)GlcNAc(b1-2)Man(a1-3)[Gal(b1-4)GlcNAc(b1-2)Man(a1-6)]Man(b1-4)GlcNAc(b1-4)[Fuc(a1-6)]GlcNAc
Method in brief: as §1

[31] = target: Gal(b1-4)GlcNAc(b1-2)Man(a1-3)[GlcNAc(b1-2)Man(a1-6)]Man(b1-4)GlcNAc(b1-4)GlcNAc
Method in brief: as §1

[32] = target: Gal(b1-4)GlcNAc(b1-2)Man(a1-3)[Man(a1-6)]Man(b1-4)GlcNAc(b1-4)GlcNAc
Method in brief: as §1

[33] = target: Gal(b1-4)GlcNAc(b1-2)Man(a1-6)Man(b1-4)GlcNAc(b1-4)GlcNAc
Method in brief: as §1

[34] = target: Gal(b1-4)GlcNAc(b1-2)Man(a1-6)[GlcNAc(b1-2)Man(a1-3)]Man(b1-4)GlcNAc(b1-4)GlcNAc
Method in brief: as §1

[35] = target: Gal(b1-4)GlcNAc(b1-2)Man(a1-6)[Man(a1-3)]Man(b1-4)GlcNAc(b1-4)GlcNAc
Method in brief: as §1

[36] = target: Gal(b1-4)GlcNAc(b1-2)[Gal(b1-4)GlcNAc(b1-4)]Man(a1-3)[Gal(b1-4)GlcNAc(b1-2)Man(a1-6)]Man(b1-4)GlcNAc(b1-4)GlcNAc
Method in brief: as §1

[37] = target: Gal(b1-4)GlcNAc(b1-2)[Gal(b1-4)GlcNAc(b1-4)]Man(a1-3)[Gal(b1-4)GlcNAc(b1-2)[Gal(b1-4)GlcNAc(b1-6)]Man(a1-6)]Man(b1-4)GlcNAc(b1-4)GlcNAc
Method in brief: as §1

[38] = target: Gal(b1-4)GlcNAc(b1-3)Gal(b1-3)GlcNAc
Method in brief: as §1

[39] = target: Gal(b1-4)GlcNAc(b1-3)Gal(b1-4)Glc
Method in brief: as §1

[40] = target: Gal(b1-4)GlcNAc(b1-3)Gal(b1-4)GlcNAc
Method in brief: as §1

[41] = target: Gal(b1-4)GlcNAc(b1-3)Gal(b1-4)GlcNAc(b1-3)Gal(b1-4)GlcNAc
Method in brief: as §1

B1: AcfC (Vibrio cholerae), Q57410 (protein)
chain: MKSKNRFLLISLLSFSTSVFADVNLYGPGGPHVPLIKVAESFEKSQSKRVNITFGPQATWNDKAKKNADILFGASEHSALAIAEGHSERFSKFNIHPVFMREAIILVKKGNPKNIKGMADLLKPGIGIVVNDGAGVSNTSGTAVWEDSVGRMKNVEKLQAFRSNIHVFAPNSGSARKAFVDGEDIDAWITWVDWAIANPTIGDMVRMEDEYRIYRDFNVVLAKNPSSEAIDFFDYLTKSKDAEAIFQHYGWFK
glycan array binding signal (z-score) [1]: -0.422 | glycan array binding signal (z-score) [2]: -0.791 | glycan array binding signal (z-score) [3]: 0.777 | glycan array binding signal (z-score) [4]: -1.36 | glycan array binding signal (z-score) (Gal(b1-3)GlcNAc): 0.247 | glycan array binding signal (z-score) [5]: -0.401 | glycan array binding signal (z-score) [6]: 0.469 | glycan array binding signal (z-score) [7]: 0.321 | glycan array binding signal (z-score) [8]: -0.219 | glycan array binding signal (z-score) [9]: -0.019 | glycan array binding signal (z-score) [10]: -0.979 | glycan array binding signal (z-score) [11]: -1.14 | glycan array binding signal (z-score) [12]: 0.419 | glycan array binding signal (z-score) [13]: 0.918 | glycan array binding signal (z-score) [14]: -0.955 | glycan array binding signal (z-score) [15]: 0.672 | glycan array binding signal (z-score) [16]: 1.93 | glycan array binding signal (z-score) [17]: 1.45 | glycan array binding signal (z-score) [18]: 0.16 | glycan array binding signal (z-score) [19]: -1.5 | glycan array binding signal (z-score) [20]: -0.436 | glycan array binding signal (z-score) [21]: -0.679 | glycan array binding signal (z-score) [22]: 0.043 | glycan array binding signal (z-score) [23]: -0.622 | glycan array binding signal (z-score) [24]: -0.095 | glycan array binding signal (z-score) [25]: 0.656 | glycan array binding signal (z-score) [26]: -0.093 | glycan array binding signal (z-score) (Gal(b1-4)Glc): -0.89 | glycan array binding signal (z-score) (Gal(b1-4)Glc6S): 0.19 | glycan array binding signal (z-score) (Gal(b1-4)GlcNAc): -1.08 | glycan array binding signal (z-score) [27]: 0.616 | glycan array binding signal (z-score) [28]: -0.402 | glycan array binding signal (z-score) [29]: 3 | glycan array binding signal (z-score) [30]: 1.29 | glycan array binding signal (z-score) [31]: 0.173 | glycan array binding signal (z-score) [32]: -0.107 | glycan array binding signal (z-score) [33]: 1.19 | glycan array binding signal (z-score) [34]: 0.212 | glycan array binding signal (z-score) [35]: -0.637 | glycan array binding signal (z-score) [36]: 1.71 | glycan array binding signal (z-score) [37]: 0.947 | glycan array binding signal (z-score) [38]: 0.193 | glycan array binding signal (z-score) [39]: 0.082 | glycan array binding signal (z-score) [40]: -1.1 | glycan array binding signal (z-score) [41]: -0.41
